# Assay results as given in PubChem BioAssay AID1347075 (National Center for Advancing Translational Sciences (NCATS), 2019).
# Where “and” joins values, the source holds several entries; their conditions need not be identical. Equal entries are not always repeated. The campaign covered roughly 400,000 compounds. About 5,500 (1.4%) were called active. The inconclusive results got no clear call from the source; some entries with a clear call stand among them for comparison. Calls come from the whole dose curve; as a rule, active = well fitted cell-killing curve with a large enough effect; inconclusive = small, poorly fitted or top-dose-only effect, or effect the other way; inactive = flat fitted curve, though single readings scatter. Potencies of inconclusive entries are doubtful fits and often do not repeat.
# Test: qHTS assay for MDR1-selective chemotherapeutics: Primary screen using the parental adenocarcinoma cell KB-3-1; note: nearly all actives have a fitted effect of over 60% in size
# Settings: KB-3-1 viability, CellTiter-Glo ATP luminescence, 72 h; activity change, negative = cytotoxic: at 46.1 µM (top of the series)
# In short: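 Viability of parental KB-3-1 cells, measured by CellTiter-Glo luminescence, followed a 72 h incubation at 37 °C with pinned compounds in phenol-red-free DMEM containing 10% FBS.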
# % is set by controls: 0 for no effect and ±100 for the full control effect; potency is the fitted concentration of half-maximal effect.
Structure (SMILES),Potency,"activity change, negative = cytotoxic"
O=C(Nc1ccc(OC(F)F)cc1)c1nc(S(=O)(=O)Cc2ccccc2F)ncc1Cl,"inconclusive: 18.4 µM [cytotoxic, single point]",–
COc1ccc(N2CCN(C(CNC(=O)CC(C)C)c3ccc4c(c3)OCO4)CC2)cc1 (configuration not stated),–,inactive: -0.747%
Cc1ccc(CN2CCC[C@]3(N[C@H](c4ccc(C(F)(F)F)cc4)[C@@H]4C(=O)N(Cc5ccccc5)C(=O)[C@@H]43)C2=O)cc1,"inconclusive: 29.1 µM [cytotoxic, single point]",–
CC(=O)N(CCc1ccccc1)c1ccc2c(c1)C1CC2CCN1C(=O)OCc1ccccc1 (configuration not stated),"inconclusive: 29.1 µM [cytotoxic, single point]",–
CCOCCCNC(=O)/C(C#N)=C/c1ccc([N+](=O)[O-])o1,–,inactive: -1.87%
O=[N+]([O-])c1ccc(O)c(N=Cc2sc3ccccc3c2O)c1,active: 16.4 µM,–
COc1cc(C2NC(=O)NC(c3ccccc3)=C2C(C)=O)c(Cl)cc1OCC(=O)O (configuration not stated),"inconclusive: 0.0092 µM [rising, full curve]",–
CCN(CC)c1ccc(-c2nn3c(-c4n[nH]c5c4CCC5)nnc3s2)cc1,"inconclusive: 0.517 µM [cytotoxic, full curve, poor fit]",–
CN(C)CCNC(=O)C(=O)NCC1OCCCN1S(=O)(=O)c1cccs1 (configuration not stated),"inconclusive: 29.1 µM [rising, single point]",–
C=CCOc1ccc(C(=O)c2ccccc2)c(OCC(=O)NC2(C#N)CCCC2)c1,–,inactive: -5.26%
COc1ccc(CCNC(=O)CSCC(=O)Nc2cc(S(C)(=O)=O)ccc2Cl)cc1,"inconclusive: 1.84 µM [cytotoxic, partial curve]",–
CCCCCC(=O)O[C@]1(C(C)=O)CC[C@H]2[C@@H]3CCC4=CC(=O)CC[C@]4(C)[C@H]3CC[C@@]21C,"inconclusive: 29.1 µM [cytotoxic, single point]",–
Cc1ccc(Cn2nc(C)c(NC(=O)c3cc(-c4ccc5c(c4)OCO5)on3)c2C)cc1,–,inactive: 18.7%
CCCCC(=O)Nc1ccc(NC(=O)c2ccccc2[N+](=O)[O-])cc1OC,"inconclusive: 9.2 µM [rising, partial curve, poor fit]",–
O=C(CN1C(=O)c2ccccc2C1=O)N1CCN(c2nnc(-c3ccccc3)c3ccccc23)CC1,"inconclusive: 7.31 µM [rising, partial curve, poor fit]",–
Cc1cccc(NC(=O)CSc2nc3ccccc3c(=O)n2C)c1C,"inconclusive: 14.6 µM [cytotoxic, partial curve, poor fit]",–
C/C(=N\NC(=O)CN1CCN(Cc2ccccc2)CC1)c1cccs1,–,inactive: -6.35%
CCOc1ccccc1NC(=O)Nc1nnc(N(C)Cc2ccccc2)s1,–,inactive: -2.6%
CCCCNCCCOc1cc(Cl)ccc1Cl,"inconclusive: 29.1 µM [cytotoxic, single point]",–
CCN(CC)c1ccc(C(=O)OCC(=O)NC(C)(C)C)cc1,–,inactive: -1.73%
COc1ccc(N2CCN(C(=O)c3ccc(S(=O)(=O)N4CCOCC4)cc3)CC2)cc1,–,inactive: -15.2%
COc1ccc(N(Cc2cc3ccccc3[nH]c2=O)S(=O)(=O)c2ccccc2)cc1,"inconclusive: 4.11 µM [cytotoxic, full curve]",–
COc1ccccc1Nc1cc2cc(Br)ccc2c(=O)[nH]1,active: 7.31 µM,–

# Two entries from above, as tab-separated lines.
Structure (SMILES)	Potency	activity change, negative = cytotoxic
Cc1ccc(Cn2nc(C)c(NC(=O)c3cc(-c4ccc5c(c4)OCO5)on3)c2C)cc1	–	inactive: 18.7%
CCN(CC)c1ccc(C(=O)OCC(=O)NC(C)(C)C)cc1	–	inactive: -1.73%

# Later entries:

Structure (SMILES),Potency,"activity change, negative = cytotoxic"
CC(C)(C)[C@@H]1CCC(=O)N(CC[C@H](Sc2ccccc2)c2ccccc2)CC1,"inconclusive: 25.9 µM [cytotoxic, single point] and inconclusive: 23.1 µM [cytotoxic, single point]",–
CC(NC(=S)NC1CCCCC1)c1ccc(C(C)(C)C)cc1 (configuration not stated),"inconclusive: 29.1 µM [cytotoxic, single point]",–
Cc1ccc(C(Nc2ccccn2)c2ccc3cccnc3c2O)cc1 (configuration not stated),"inconclusive: 29.1 µM [cytotoxic, single point]",–
OCCN1CCN(c2nc(-c3ccccc3)c3cc(Cl)ccc3n2)CC1,"inconclusive: 29.1 µM [cytotoxic, single point]",–
COc1cccc(C2NC(c3cccc(OC)c3O)C(C)C(=O)C2C)c1O (configuration not stated),"inconclusive: 32.6 µM [cytotoxic, single point]",–
COc1cc2nc(N3CCCN(C)CC3)nc(Nc3ccncc3)c2cc1OC,active: 13 µM,–
O=C(NCc1ccc(F)cc1)C(=O)Nc1nc(C23CC4CC(CC(C4)C2)C3)cs1,"inconclusive: 29.1 µM [cytotoxic, single point]",–
COc1ccc(C(=O)Nc2cc(C)nc3ccccc23)cc1OC,"inconclusive: 29.1 µM [cytotoxic, single point]",–
Cc1cccc(Nc2nc(N)c([N+](=O)[O-])c(NCc3ccco3)n2)c1,"inconclusive: 20.6 µM [cytotoxic, single point]",–
Cc1cccc(NC(=O)C2(C)CC3c4ccccc4C2c2ccccc23)c1C (configuration not stated),"inconclusive: 20.6 µM [cytotoxic, partial curve]",–
CSCCC1NC(=O)N(CC(=O)N2CCc3ccccc3C2)C1=O (configuration not stated),–,inactive: 3.55%
CCOC(=O)NC1CCc2cc(OC)c(OC)c(OC)c2-c2ccc(SC)c(=O)cc21 (configuration not stated),active: 0.164 µM,–
COc1ccc(-c2cn3ccccc3n2)cc1,"inconclusive: 11.6 µM [cytotoxic, partial curve]",–
CC#CC(=O)N1CCC(n2nccc2NC(=O)c2ccc3c(c2)OCO3)CC1,"inconclusive: 16.4 µM [cytotoxic, partial curve]",–
O=C(c1[nH]c(C(F)(F)F)nc1-c1ccccc1)N1CCN(c2ccccn2)CC1,"inconclusive: 29.1 µM [cytotoxic, single point]",–
O=S(=O)(c1ccc(F)c2ccccc12)N1CCCCC1,–,inconclusive: -23.5%
Cc1cc(=O)oc2cc(O)cc(OCc3ccccc3)c12,"inconclusive: 18.4 µM [cytotoxic, single point]",–
C[C@@H]1CN([C@H](C)CO)S(=O)(=O)c2ccc(C#Cc3ccccc3F)cc2O[C@H]1CN(C)C(=O)c1ccc2c(c1)OCO2,"inconclusive: 29.1 µM [cytotoxic, single point]",–
Clc1ccc2c(c1)C(N1CCNCC1)Cc1ccccc1S2 (configuration not stated),"inconclusive: 23.1 µM [cytotoxic, single point]",–
O=C(Cn1ccc(C(F)(F)F)n1)N/N=C/c1ccc(N2CCOCC2)cc1,–,inactive: 18.9%
CCOc1cc(CNCc2cccs2)cc(Br)c1OCC,"inconclusive: 29.1 µM [cytotoxic, single point]",–
CCOC(=O)c1cc(CC)sc1/N=C/c1c(O)ccc2ccccc12,"inconclusive: 20.6 µM [rising, single point]",–
CCN1CCC(N(Cc2ccc3c(c2)OCO3)C(=O)Nc2cc(Cl)ccc2C(=O)OC)CC1,active: 16.4 µM,–

Structure (SMILES),Potency,"activity change, negative = cytotoxic"
CN1CC(c2ccc(Cl)c(Cl)c2)[C@@]2(COc3ccccc3C2=O)[C@@]12C(=O)Nc1ccccc12 (some centres not stated),"inconclusive: 29.1 µM [cytotoxic, single point]",–
COc1cccc(OCC(O)CN2CCC(Cc3ccccc3)CC2)c1 (configuration not stated),"inconclusive: 23.1 µM [cytotoxic, single point]",–
COc1cc(OC)c2c(-c3ccccc3)cc(=O)oc2c1C(CCN1CCCCC1)c1ccc(N(C)C)cc1 (configuration not stated),"inconclusive: 25.9 µM [cytotoxic, single point]",–
CN(C)c1ccc(/C=C/c2nc3ccccc3c(=O)[nH]2)cc1,–,inactive: -23.5%
CCC(=O)N(Cc1cc2c(C)ccc(C)c2[nH]c1=O)C1CCCCC1,"inconclusive: 16.4 µM [cytotoxic, single point]",–
CCc1nnc(NC(=O)c2cc(-c3ccc(C)o3)nc3ccccc23)s1,"inconclusive: 5.8 µM [rising, partial curve]",–
CC1CCc2sc(C(=O)OCC(=O)NCc3ccccc3)cc2C1 (configuration not stated),"inconclusive: 20.6 µM [cytotoxic, single point]",–
COc1ccc(CN2CCC(C(=O)Nc3ccc(Oc4ccccc4)nc3)CC2)cc1F,"inconclusive: 18.4 µM [cytotoxic, single point]",–
COc1cccc(C(=Cc2ccc([N+](=O)[O-])cc2)C(=O)O)c1,"inconclusive: 0.259 µM [rising, full curve]",–
Cc1ccc(C)c(-c2nnc(NC(=O)CCS(=O)(=O)c3ccc(F)cc3)o2)c1,–,inactive: 1.94%
CCCCN(C)CCCNC(=O)c1ccc2nc(N3CCCCC3)sc2c1,–,inactive: -11.1%
Cc1nc(Nc2cccc(O)c2)c2c3c(sc2n1)CCC3,–,inactive: -11.7%
CNC(=S)N/N=C1\C(=O)c2cccc3cccc1c23,"inconclusive: 29.1 µM [cytotoxic, single point]",–
CC(=O)/C=C1/C(=O)Nc2ccccc21,"inconclusive: 18.4 µM [cytotoxic, partial curve, poor fit]",–
Cc1ccc(C(=O)CSC2=C(C#N)C(c3ccco3)C3=C(CC(C)(C)CC3=O)N2)cc1 (configuration not stated),"inconclusive: 23.1 µM [cytotoxic, single point]",–
CCCCC(=O)NC(c1cccs1)c1cc(Cl)c2cccnc2c1O (configuration not stated),"inconclusive: 6.51 µM [cytotoxic, full curve, poor fit]",–
COc1ccc(C2=NN(c3nc4ccccc4s3)C(=O)C2)cc1,"inconclusive: 14.6 µM [cytotoxic, partial curve]",–
COc1ccc(NC(=O)CSc2nnc(-c3ccc(F)cc3)o2)cn1,–,inconclusive: 30.3%
Cc1ccc2oc(-c3ccco3)nc2c1,"inconclusive: 14.6 µM [rising, partial curve]",–
CCS(=O)(=O)c1ccc2c(c1)N(S(C)(=O)=O)CC(C(=O)NN)O2 (configuration not stated),–,inactive: 0.0214%
O=S(=O)(Nc1cc(Cl)ccc1-n1cncn1)c1ccccc1Cl,"inconclusive: 10.3 µM [cytotoxic, partial curve]",–

# Reprinted from the results shown for reference:
Structure (SMILES),Potency,"activity change, negative = cytotoxic"
O=S(=O)(c1ccc(F)c2ccccc12)N1CCCCC1,–,inconclusive: -23.5%
Cc1cc(=O)oc2cc(O)cc(OCc3ccccc3)c12,"inconclusive: 18.4 µM [cytotoxic, single point]",–
C[C@@H]1CN([C@H](C)CO)S(=O)(=O)c2ccc(C#Cc3ccccc3F)cc2O[C@H]1CN(C)C(=O)c1ccc2c(c1)OCO2,"inconclusive: 29.1 µM [cytotoxic, single point]",–
